# According to PubChem BioAssay AID493014 (National Center for Advancing Translational Sciences (NCATS), 2011):
# Screen size: about 340,000 compounds; about 170 (0.05%) were called active. The shares of active, inactive and inconclusive entries below differ from those in the screen. Calls follow the shape of the dose curve; as a rule, active = well fitted inhibition curve with a large enough effect in the signal ratio, with a control signal flat (not every such curve was filed as active); inconclusive = small, poorly fitted or top-dose-only effect, or effect the other way, or a change in a side signal; inactive = flat fitted curve, though single readings scatter; the % refers to the signal ratio. Potencies beside an inconclusive call are fits to weak or partial responses and may not hold up.
# Experiment: qHTS Assay to Find Inhibitors of Chronic Active B-Cell Receptor Signaling;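 as to activity change, negative = inhibition: plate controls were basal doxycycline-induced cells for no effect and cells given 10 µM MG132 for full effect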
# Settings: ABC-DLBCL IkBa-CBG/CBR reporter, luminescence ratio (green luciferase fused to IkBa over red control in TMD8 lymphoma cells), 4 h; activity change, negative = inhibition: at 46.1 µM (top of the series) unless noted
# Procedure, shortened: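 TMD8 ABC-DLBCL cells carrying doxycycline-inducible green luciferase fused to IkappaBalpha plus unfused red luciferase were exposed to compounds (up to 46 uM) for 4 hrs at 37C. Activity came from the overlap-corrected green/red luminescence ratio.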
# Potency is read from the fitted curve at half-maximal effect.
SMILES,"activity change, negative = inhibition",Potency
CCc1nc(C)cn1S(=O)(=O)c1cc(C)c(OC)c(C)c1C,inactive: -10.6%,–
COc1ccc(C)cc1N(CC(=O)NCCSCc1ccco1)S(=O)(=O)c1ccc(C)cc1,inconclusive: 12.8%,–
COc1ccc(NS(=O)(=O)c2ccc(NS(=O)(=O)c3ccc(SC)cc3)cc2)c(OC)c1,inconclusive: 13.1%,–
COc1ccc(-c2sc3cc(OC)c(OC)cc3c2C#CC(C)(C)O)cc1,inconclusive: -0.211%,–
CC(C)C(=O)Nc1ccc2c3c(cccc13)CC2,inconclusive: -0.503%,–
Cc1ccc(-n2c(SCC(=O)N3CCOCC3)nnc2-c2ccncc2)cc1C,inactive: -5.42%,–
COc1cccc(NC(=O)CSC2=C(C#N)C(c3ccco3)C3=C(CCCC3=O)N2)c1 (stereo unspecified),–,"inconclusive: 3.66 µM [rising, partial curve, poor fit]"
O=[N+]([O-])c1cccc(NC(=S)Nc2nc(-c3ccccc3Cl)cs2)c1,–,"inconclusive: 35.5 µM [falling, single point]"
Cc1ccc(CNC(=O)COC(=O)c2cc3c(s2)CCC(C)C3)cc1 (stereo unspecified),inactive: 15.9%,–
CCCCNc1oc(-c2cccs2)nc1S(=O)(=O)c1ccccc1,–,"inconclusive: 13 µM [rising, single point]"
Cc1ccccc1OCC(=O)Nc1cccc(S(=O)(=O)NC2=NCCCCC2)c1,–,"inconclusive: 29.1 µM [falling, single point]"
Cn1c(=O)[nH]c(=O)c2c1nc(NCCN)n2CCOc1ccccc1,–,"inconclusive: 10 µM [falling, partial curve, poor fit]"
CC(C)(C)OC(=O)N1CCC(c2cc(=O)n3[nH]cc(C(=O)Nc4ccc(F)c(Cl)c4)c3n2)CC1,inactive: 8.2%,–
Cc1c(C(=O)N2CCN(c3ccc([N+](=O)[O-])cc3)CC2)sc2ncn(CC(=O)N3CCOCC3)c(=O)c12,–,"inconclusive: 0.282 µM [falling, full curve, poor fit]"
COc1ccc(Cl)cc1NC(=O)C/C(C)=N/NC(=O)C(=O)NCc1ccccc1,–,"inconclusive: 20 µM [falling, partial curve, poor fit]"
CC(C)CC(=O)NCc1ccc(F)cc1,inconclusive: 0.283%,–
COc1ccc(CNC(=O)c2sc3nc4c(c(C(F)(F)F)c3c2N)CCC4)cc1OC,inactive: 3.95%,–
COC(=O)c1sc(NC(=O)COc2cccc3ccccc23)nc1C,–,"inconclusive: 25.1 µM [falling, partial curve]"
COc1ccc2cc(C(=O)C3CCCN(C(=O)CCc4cnn(C)c4)C3)ccc2c1 (stereo unspecified),inconclusive: 0.133%,–
Cc1ccc(NC(=O)CSc2ncccn2)cc1F,inconclusive: 15%,–
O=C(CSc1ccc2c(c1)OCCO2)NCCc1ccc(Cl)cc1Cl,inactive: 2.33%,–

SMILES,"activity change, negative = inhibition",Potency
COc1ccccc1C1/C(=C(/O)c2ccccc2)C(=O)C(=O)N1CC(C)C (stereo unspecified),inconclusive: 6.18%,–
COc1ccccc1CC1S/C(=N/N=C/c2ccco2)NC1=O (stereo unspecified),inactive: -12%,–
N#Cc1c(C(F)(F)F)cc(-c2ccc(Cl)cc2)nc1SCC(=O)O,inconclusive: 15.3%,–
Cc1ccc(Cn2ccc(-c3cnc(-c4ccccc4)s3)n2)cc1,–,"inconclusive: 2.06 µM [rising, partial curve, poor fit]"
c1ccc(CNc2nc3ccccc3n3cnnc23)nc1,–,"inconclusive: 1.46 µM [rising, partial curve]"
CCOc1ccccc1NC(=S)NCCc1ccccc1,inactive: 1.53%,–
COc1ccc(-c2nn(-c3ccccc3)cc2/C=C/C(=O)O)cc1[N+](=O)[O-],–,"inconclusive: 2.51 µM [cytotoxic, full curve]"
CCNC(=O)COC(=O)Cc1ccc(Cl)cc1Cl,inconclusive: 6.27%,–
Cc1cc(C(=O)N/N=C\c2cc(C(C)(C)C)ccc2O)n[nH]1,inactive: -15.2%,–
c1coc(C2=Nc3cccc4cccc(c34)N2)c1,inactive: 3.29%,–
CCCC(=O)O[C@]1(C(=O)CO)CC[C@H]2[C@@H]3CCC4=CC(=O)CC[C@]4(C)[C@H]3[C@@H](O)C[C@@]21C,inconclusive: -18.5%,–
O=CNC1CCCc2c1[nH]c1ccc(Cl)cc21 (stereo unspecified),–,"inconclusive: 22.4 µM [falling, single point]"
Cc1c(CCC(=O)NC2CC2)c(=O)oc2c(C)c(O)ccc12,–,"inconclusive: 1.78 µM [falling, partial curve, poor fit]"
CCCCOc1ccc(C2C3CN(C(=O)OCC)CC=C3C(C#N)=C(N)C2(C#N)C#N)cc1OC (stereo unspecified),inconclusive: -22.9%,–
CCOc1ccc(C(C)=O)cc1N1C(=O)C2C3C=CC(C3)C2C1=O (stereo unspecified),inconclusive: -8.39%,–
Cc1ccc(OCC(=O)N/N=C/C=C/c2ccco2)cc1C,inactive: -4.23%,–
COc1ccc(NC(=O)COC(=O)CNC(=O)C2CCCCC2)cc1OC,inconclusive: 1.36%,–
Cc1nnc(N2C(=O)C(O)=C(C(=O)c3ccco3)C2c2cccc3ccccc23)s1 (stereo unspecified),inconclusive: 8.11%,–
CCOC(=O)c1ccc2c(c1)nc(COc1ccccc1C#N)n2CC,inconclusive: 5.31%,–
Cc1cc2nc(C)n(CCCNC(=O)Nc3cccc4ccccc34)c2cc1C,inconclusive: 0.418%,–
COc1ccc(/C=C/C2=NN(C)C(=O)CC2)cc1,–,"inconclusive: 25.1 µM [falling, single point]"

SMILES,"activity change, negative = inhibition",Potency
COc1ccc2[nH]c(=O)c(CNc3ccccc3OC)cc2c1,–,"inconclusive: 25.1 µM [falling, partial curve]"
CCC1=NN2C(=N)/C(=C/c3cc(C)n(Cc4ccccc4)c3C)C(=O)N=C2S1,inconclusive: 9.03%,–
CSc1ccccc1C(=O)C1CCCN(Cc2cnn(-c3ccccc3)c2)C1 (stereo unspecified),inactive: 11.8%,–
O=C(C1CCN(S(=O)(=O)c2cccc3nonc23)CC1)N1CCN(c2ccccc2F)CC1,inactive: -14.3%,–
Cc1ccc(-c2nnc(NCc3ccccc3)c3ccccc23)cc1,inconclusive: 9.53%,–
Cc1nc(NN)c2c3c(sc2n1)COC(C)(C)C3,inconclusive: 2.66%,–
Cc1cc(C)nc(N/N=C/c2ccccc2OCc2ccc(Br)cc2)n1,inconclusive: -13.3%,–
O=C1S/C(=C/c2ccc(N3CCOCC3)o2)C(=O)N1Cc1c(F)cccc1Cl,inactive: -7.88%,–
O=C(/C=C/c1ccccc1Cl)Nc1ccccc1,–,"inconclusive: 17.8 µM [falling, partial curve]"
C[C@@H]1COC(=O)[C@H](CC(=O)OC(C)(C)C)C/C=C\C[C@@H](CC(=O)NCCO)C(=O)N1,inconclusive: 1.44%,–
Cn1c(=O)n(C)c2cc([N+](=O)[O-])c(N3CCN(S(=O)(=O)c4ccccc4)CC3)cc21,inconclusive: 15.4%,–
CCN(CC)c1ccc(NC(=O)Cn2nnc(-c3cccc(OC)c3OC)n2)c(C)c1,–,"inconclusive: 29.1 µM [falling, single point]"
COc1ccc2cc(C(=O)NCc3ccc4c(c3)CCN4C(=O)c3ccccc3)[nH]c2c1,inactive: -28%,–
COc1ccc(S(=O)(=O)N2CCSC2C)cc1C (stereo unspecified),inconclusive: 3.82%,–
O=C(N/N=C/c1ccco1)c1cc(-c2ccncc2)nc2ccccc12,inconclusive: -25.7%,–
CN(C(=O)COC(=O)CNC(=O)c1ccccc1Cl)c1ccccc1,inconclusive: 4.65%,–
COc1ccc(NC(=O)N2CCC(c3ccccc3)C2)c(OC)c1 (stereo unspecified),inactive: 16.2%,–
CC1CCC/C(=N\NS(=O)(=O)c2ccccc2)C1 (stereo unspecified),inconclusive: 0.512%,–
COCCn1nnnc1SCC(=O)c1ccc(F)cc1,inactive: 17.8%,–
O=C(NC(=S)Nc1ccc(F)cc1)C1CCCCC1,inactive: -7.2%,–
COc1cc(/C=C/CN2CCC(CO)(CC3CCCCO3)CC2)ccc1O (stereo unspecified),inconclusive: 5.91%,–

SMILES,"activity change, negative = inhibition",Potency
CCCCn1c(-c2cccnc2)n[nH]c1=S,inactive: 2.79%,–
CCCCCCCCC[n+]1cccc2c3ccccc3ccc21,–,"inconclusive: 35.5 µM [falling, single point]"
CCC(C)NC(=O)c1cn(-c2cccc(C)n2)cn1 (stereo unspecified),–,"inconclusive: 5.62 µM [rising, single point]"
N#Cc1nc(-c2ccco2)oc1N1CCC(Cc2ccccc2)CC1,–,"inconclusive: 6.51 µM [rising, single point]"
O=C(NC1CC2CCC(C1)N2Cc1ccccc1)c1ccccc1Cl (stereo unspecified),inconclusive: 4.53%,–
Cc1nc2oc3c(NCc4ccccc4)ncnc3c2c2c1COC(C)(C)C2,inconclusive: 16.2%,–
COc1cccc(CC2(CO)CCCN(C/C=C/c3ccccc3OC)C2)c1 (stereo unspecified),inconclusive: -22.9%,–
COc1cccc(NC(=O)CN(C)C(=O)c2cc(S(=O)(=O)N3CCCCCC3)ccc2OC)c1,inactive: 1.58%,–
Nc1c(C(=O)C2CC2)sc2nc3c(cc12)CCC3,inactive: 17.5%,–
CCOc1ccc(S(=O)(=O)Nc2cc(Sc3ncn[nH]3)c3oc(=O)sc3c2)cc1,inconclusive: 0.168%,–
O=C(Nc1cccc2c1CCCC2)c1ccccc1Cl,inconclusive: -0.784%,–
CCc1ccc2nc(SCC(=O)N(CC)CC)c(C#N)cc2c1,inactive: 0.531%,–
N#Cc1c(NC(=O)CCC(=O)O)sc2c1CCCCC2,–,"inconclusive: 20 µM [falling, partial curve]"
N#CCCN(C(=S)NC(=O)c1cccs1)c1ccccc1F,inconclusive: 6.86%,–
CCN(CC)C(=O)[C@H]1C[C@H](CC(=O)NCc2cccc(C(F)(F)F)c2)C(=O)N2CCc3c([nH]c4ccc(Cl)cc34)[C@]12C,inconclusive: 3.92%,–
O=C(CN1C(=O)c2ccccc2S1(=O)=O)NC(Nc1ccccc1F)C(Cl)(Cl)Cl (stereo unspecified),–,"inconclusive: 35.5 µM [falling, single point]"
O=C(Nc1ccccc1-c1nc2ccccc2[nH]1)c1sc2ccccc2c1Cl,inactive: -0.492%,–
Cc1nn(Cc2c(Cl)cccc2Cl)c(C)c1NC(=O)c1cc(C(C)C)on1,inactive: 5.04%,–

# Five of these compounds, set out differently.
SMILES | activity change, negative = inhibition | Potency
Cc1nc2oc3c(NCc4ccccc4)ncnc3c2c2c1COC(C)(C)C2 | inconclusive: 16.2% | –
COc1cccc(CC2(CO)CCCN(C/C=C/c3ccccc3OC)C2)c1 (stereo unspecified) | inconclusive: -22.9% | –
COc1cccc(NC(=O)CN(C)C(=O)c2cc(S(=O)(=O)N3CCCCCC3)ccc2OC)c1 | inactive: 1.58% | –
Nc1c(C(=O)C2CC2)sc2nc3c(cc12)CCC3 | inactive: 17.5% | –
CCOc1ccc(S(=O)(=O)Nc2cc(Sc3ncn[nH]3)c3oc(=O)sc3c2)cc1 | inconclusive: 0.168% | –
